# Results from one PubChem assay

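Genome-wide siRNA knockdown in TC32 Ewing sarcoma cells, comparing luciferase light from an NR0B1-promoter reporter with a CMV-promoter reporter 48 hours after transfection.
Each siRNA was applied at 20 nM.
A z-score of the log NR0B1-over-CMV signal, less the median of siRNAs with the same seed; more negative means a stronger specific loss of the NR0B1 reporter.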

This is part of the screen; most of the strongest results are not listed here.
Sequences are the guide (antisense) strand, without overhang.

Sequence,target gene,seed-corrected z-score
UGAGGACCGAGAGCUUUGA,LOC643085,0.04704
UCCUUGCUCAGGAACUUUG,SPRR3,-1.341
ACAAUUCAAACAAUGGUGC,NUDT21,-1.263
UAACGAAUGAGAACAGGUG,TMEM62,-0.02439
AAUUCCAUGAUUUUCAGGC,LOC729451,0.4076
UCAUUUAACAUGGAUGCGU,TRAF7,0.4546
AACUUUCCAAAUAACUACC,PRELID3A,0.3638
UUUGUGCGCACAGAGAUAC,ZNF648,-0.2791
UCCCUCGUCACAUAUGACC,RAD54L,-0.1302
UCAUCAAAUACAACUCGGC,CA3,0.3407
UAAAUCGUCACCAGAUUGG,SP110,-0.1067
UUGCUUACAACUCUUACCC,LOC401442,-0.1467
UUUUCUGCAGCUGUCCACG,EDIL3,0.3096
UGCUAUACAGUUUAGAUUC,PARP6,1.08
UGAGUACAAAGAGUCUUGG,PDE4D,-0.06222
AAAGUGAAGGUGAGCAUGU,SEMA4C,0.04088
UUCAUUGUUGCGUAUGGCU,ZDHHC11B,0.9496
UUCAGAACCAAAUCCUGGG,TAF12,1.179
UAAGUUGAAGGAUGGAUGG,PNPLA3,0.767
UCGAUUUUUCUUAAAGUGG,DLGAP1,0.09021
UUAUGAGUGAGACCAAACG,SNX14,-0.7333
UCAUUGUAAGGAGACCACC,STK31,0.05879
AUAUGUACCCUUCACAUCC,LIG3,-0.2591
AAGGGUAUAAAUAUCACAG,PCP4,-1.067
AAUGGAACACGGUCCACUC,TAF7,0.6136
UUAGACCUCUGUAUUAGGC,GIMAP2,0.3057
UCGAUUAGUAUUGUAGCCG,REST,-1.806
UAUCUUCAUAGCUUGAAUU,ACO2,-0.01973
UAAAAGUCACGUUCCAGAG,PAFAH2,0.7269
UAGGAUAAUACUGAGACAC,HP1BP3,0.7596
UAUUUCAACCAUUAUUUCC,SPANXA1,0.6309
UUUGGGAUUUGAAGUCUUG,TM2D3,-1.091
UACAUGAGAAUUAUGCCUC,GAGE1,-0.245
AACCCUGAAAACUUGUUCC,LCN10,0.0555
AUGUUGUUGAUCAAUGGGC,LOC730159,1.037
UUCAGUUAUUCCAAGAGCC,SERPINI1,1.167
UAUCUAUAUGGACAAUUUC,PITPNB,0.592
UCAAUCAAUAAUUCCAAUC,VAMP7,-0.8245
UCCCGCAACAGGAUGUACG,TSPAN11,-0.3121
ACAGUAUUCACUUCCGGUC,PHF2,-0.2892
UGUGCAAUCUGAGUUCUGC,CARD19,-0.8239
AAUUCUACCUGAGAUUUGG,C2orf54,0.6067
AUAGGAAGAUGGUAUAUGC,LOC644667,-0.4717
ACAGUAGGAAGUACUUUUC,LPAR2,-0.04817
UAUUGUCCCAGGAUCCAAC,F13A1,-1.319
AUAGGAUCCAGGAAAGUCC,ADAM30,1.159
UCUGCUAUGUGAUCUAAGC,FBXW11,0.5382
UAUGAACUUAACAUUGUCG,SULT6B1,0.1703
UCCUUUGUCUACUACAUCC,RABL6,0.6505

Some entries from above, unchanged:

| Sequence | target gene | seed-corrected z-score |
|---|---|---|
| `AAAGUGAAGGUGAGCAUGU` | SEMA4C | 0.04088 |
| `ACAGUAGGAAGUACUUUUC` | LPAR2 | -0.04817 |
| `UAAGUUGAAGGAUGGAUGG` | PNPLA3 | 0.767 |
| `UCAUCAAAUACAACUCGGC` | CA3 | 0.3407 |
| `UGAGUACAAAGAGUCUUGG` | PDE4D | -0.06222 |
| `UGCUAUACAGUUUAGAUUC` | PARP6 | 1.08 |

The results are deposited in PubChem (AID1159506; NCATS, 2015).